# Data published in PubChem BioAssay AID504648 (National Center for Advancing Translational Sciences (NCATS), 2011).
# In all, about 390,000 compounds went through this assay and about 610 (0.16%) were called active. The inconclusive results got no clear call from the source; some entries with a clear call stand among them for comparison. Calls come from the whole dose curve; as a rule, active = well fitted inhibition curve with a large enough effect; inconclusive = small, poorly fitted or top-dose-only effect, or effect the other way, or another doubt; inactive = no such curve, though single readings can be large or run the other way. Where the call is inconclusive, the potency comes from a doubtful curve fit.
# Assay: Nrf2 qHTS screen for inhibitors: counterscreen for cytotoxicity
# Conditions: A549 ARE-Fluc cells, CellTiter-Fluor viability, 18-24 h; activity change, negative = cytotoxicity: at 46 µM (top of the series)
# Procedure, shortened: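 A549 ARE-Fluc cells in 5% FBS OPTI-MEM, 5000 cells/well, rested 2 h then exposed to compounds in concentration-response for 18-24 h at 37 °C. Viability by CellTiter-Fluor fluorescence (Ex 405/Em 525) after 30 min; luciferase luminescence (BugLite, 15 min, RT) read afterwards.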
# % is set by controls: 0 for no effect and ±100 for the full control effect; potency is the fitted concentration of half-maximal effect.
Compound,Potency,"activity change, negative = cytotoxicity"
COc1ccc(N(Cc2cccs2)C(=O)COc2cc(C)c(Cl)c(C)c2)cc1,inactive,
Cc1ccc(OCC(=O)Nc2nc(-c3ccccn3)cs2)c(C)c1,"inconclusive: 29.1 µM [falling, partial curve, poor fit]",
Cc1ccccc1C(=O)NNC(=S)Nc1cccc(C(F)(F)F)c1,"inconclusive: 29.1 µM [falling, single point]",
O=C(NCc1nnc(SCc2ccc(C(F)(F)F)cc2)n1-c1ccccc1)C12CC3CC(CC(C3)C1)C2,"inconclusive: 25.9 µM [falling, partial curve, poor fit]",
CC(NC(=O)COC(=O)/C=C/c1ccco1)c1ccccc1 (centres undefined),inactive,
CC1(C)CC(=O)c2c(O)cc(OCC(=O)Nc3ccc(S(N)(=O)=O)cc3)cc2O1,inactive,
O=c1c(S(=O)(=O)c2ccc(Cl)cc2)cn(Cc2ccccc2F)c2ccc(F)cc12,"inconclusive: 1.03 µM [activator, partial curve, poor fit]",
COc1ccc(NC(=O)C/C(C)=N/NC(=O)c2cccs2)c([N+](=O)[O-])c1,"inconclusive: 6.51 µM [falling, partial curve, poor fit]",
O=C(CC1SC(N2CCCC2)=NC1=O)Nc1ccc(C(=O)N2CCN(c3cccc(Cl)c3)CC2)cc1 (centres undefined),"inconclusive: 32.6 µM [falling, partial curve, poor fit]",
O=[N+]([O-])c1cc(NS(=O)(=O)c2ccc(Cl)nc2)ccc1Cl,"inconclusive: 23.1 µM [falling, single point]",
COc1ccc(-n2c(-c3ccc(F)cc3)cnc2SCC(=O)NCc2ccco2)cc1,inactive,
C[C@]12c3[nH]c4cc(-c5ccco5)ccc4c3CCN1C(=O)[C@@H](CC(=O)NCC13CC4CC(CC(C4)C1)C3)C[C@@H]2C(=O)N1CCOCC1,"inconclusive: 29.1 µM [falling, single point]",
O=C(Nc1sc2c(c1C(=O)O)CCCCC2)c1ccccc1F,"inconclusive: 8.2 µM [falling, partial curve]",
COc1cc(N(C)C)ccc1C=c1c2ccccc2n2c1cc(-c1ccccc1)[n+]2C,"inconclusive: 20.6 µM [falling, single point]",
O=C(Nc1ccc(Cl)c(-c2nc3ccccc3[nH]2)c1)c1ccc2c(c1)OCO2,"inconclusive: 18.4 µM [falling, single point]",
CN(C)c1cc2c(c(N(C)C)c1)C(=O)c1ccccc1C2=O,"inconclusive: 18.4 µM [falling, partial curve]",
CN=C(Nc1cc(Cl)ccc1Cl)SC1CC(=O)N(c2ccc(C(=O)OC)cc2)C1=O (centres undefined),"inconclusive: 23.1 µM [falling, single point]",
COc1ccccc1NC(=S)N(Cc1ccco1)Cc1cc2ccc(C)c(C)c2[nH]c1=O,"inconclusive: 2.06 µM [falling, partial curve, poor fit]",
COc1ccc(CNC(=O)c2cc3cccc4c3n2CC(C)S4)c(OC)c1 (centres undefined),inactive,
COc1ccc(C(=O)/C=C/C(=O)N(CC(=O)NC2CCCCC2)Cc2ccccc2)c(O)c1,"inconclusive: 29.1 µM [falling, single point]",

Compound,Potency,"activity change, negative = cytotoxicity"
Cc1cccc(NC(=S)NNC(=O)c2ccc3c(c2)OCO3)c1,"inconclusive: 20.6 µM [activator, partial curve, poor fit]",
CN(C(=O)CC1C(=O)NCCN1CC(c1ccccc1)c1ccccc1)C(C1CC1)C1CC1 (centres undefined),"inconclusive: 3.66 µM [activator, partial curve, poor fit]",
CN(CC(=O)Nc1ccc(Cl)cc1)C(=O)c1sccc1-c1ccccc1,"inconclusive: 32.6 µM [falling, partial curve, poor fit]",
C=C(C)C1CC=C(C)/C(=N/NC(=O)COc2ccc(C)cc2)C1 (centres undefined),inactive,
COc1cccc(CN2C(=O)CN(C3CCCCC3)C(=O)C2c2ccc(OC)c(OC)c2)c1 (centres undefined),"inconclusive: 5.17 µM [activator, partial curve, poor fit]",
Cc1ccc(C)c(N2CCN(C(=O)CN3C(=O)c4ccccc4C3=O)CC2)c1,"inconclusive: 29.1 µM [activator, partial curve, poor fit]",
CS(=O)(=O)c1ccc2c(c1)SC1=NC(=O)/C(=C/c3ccco3)C(=N)N12,"inconclusive: 18.4 µM [falling, partial curve, poor fit]",
CCOc1ccc(N2C(=O)CC(NCCc3c[nH]c4ccccc34)C2=O)cc1 (centres undefined),"inconclusive: 13 µM [activator, partial curve, poor fit]",
COc1cc(NC(=O)CSc2nc(C)cs2)cc(OC)c1,"inconclusive: 8.2 µM [activator, partial curve, poor fit]",
COc1ccc(C(C(=O)NC(C)(C)C)N(C(=O)CCC(=O)Nc2cc(C)on2)c2ccc(C)c(C)c2)cc1 (centres undefined),inactive,
O=[N+]([O-])c1cc(/C=N\Nc2nc(-c3ccccc3)cs2)ccc1O,"inconclusive: 23.1 µM [falling, partial curve, poor fit]",
COCc1cc(C)nc2sc3c(c12)NC(c1ccc(O)cc1)N(c1ccc(C)cc1)C3=O (centres undefined),,inconclusive: -64.5% [activator]
COCCCn1c(SCc2nnc(-c3ccc(OC)c(OC)c3)o2)nc2ccccc2c1=O,inactive,
O=C(CN1CCC(n2nnc3cc(F)ccc32)CC1)NNC(=O)c1ccccc1,"inconclusive: 20.6 µM [activator, partial curve, poor fit]",
COc1cccc(N2CCN(Cc3nc4scc(-c5ccccc5)c4c(=O)[nH]3)CC2)c1,inactive,
CC(C)N1CCc2nc(SCC(=O)Nc3cccc(F)c3)[nH]c(=O)c2C1,inactive,
CC1Sc2ccc(S(=O)(=O)NCCc3ccccc3)cc2NC1=O (centres undefined),inactive,
CCOC(=O)c1c(C)[nH]c(C)c1C(=O)CSc1nc2ccccc2c(=O)n1-c1ccccc1C,"inconclusive: 20.6 µM [falling, partial curve, poor fit]",
Nc1cccc2c1C(=O)N(c1ccccc1)C2=O,"inconclusive: 16.4 µM [activator, single point]",

# Ordered by molar mass (rising): some entries from above.
Compound,Potency,"activity change, negative = cytotoxicity"
Nc1cccc2c1C(=O)N(c1ccccc1)C2=O,"inconclusive: 16.4 µM [activator, single point]",
Cc1ccc(C)c(N2CCN(C(=O)CN3C(=O)c4ccccc4C3=O)CC2)c1,"inconclusive: 29.1 µM [activator, partial curve, poor fit]",
CN(C(=O)CC1C(=O)NCCN1CC(c1ccccc1)c1ccccc1)C(C1CC1)C1CC1 (centres undefined),"inconclusive: 3.66 µM [activator, partial curve, poor fit]",
